Results are given in words; binding and its absence hold for the method and conditions named. In cells and extracts the contact can be indirect. Some binding calls cover weakened binding; strength is not graded here. For some of these results: Tags and fused reporters may be left off the sequences shown.
How the values were obtained:
[1] = target: GST-tagged N terminal portion of human EEA1 (GST-EEA1NT) (human) (UniProt Q15075); test: pull-down; purified GST-EEA1NT tested on the GTP-bound (Q66L) and GDP-bound (S21N) forms of Vps21p (Supplementary Fig. 6c); source of the Vps21p mutants not told in the text shown
[2] = target: GST-tagged N terminal portion of human EEA1 (GST-EEA1NT) (human) (UniProt Q15075); test: pull-down; as a1, but with lysate of cells lacking the Vps21p-GEFs (vps9Δ muk1Δ); only the target purified
[3] = target: GST-tagged N terminal portion of human EEA1 (GST-EEA1NT) (human) (UniProt Q15075); test: pull-down; GST-EEA1NT bound to Glutathione-sepharose 4B incubated 1 h in the cold room with cleared lysate of yeast cells expressing GFP-Vps21p (wild type; also sac6Δ scp1Δ, arf1Δ, ent3Δ ent5Δ, vps9ΔCUE, vps9ΔCUE arf1Δ, vps9Δ); 20 mM Tris-HCl pH 7.5, 100 mM NaCl, 1 mM EDTA, 10 mM DTT; eluted with 10 mM glutathione; anti-GFP blot; only the target purified

Amino acid sequences for entries named in this document (tags omitted). Residues count along the entry.
UniProt Q15075, residues 1-209: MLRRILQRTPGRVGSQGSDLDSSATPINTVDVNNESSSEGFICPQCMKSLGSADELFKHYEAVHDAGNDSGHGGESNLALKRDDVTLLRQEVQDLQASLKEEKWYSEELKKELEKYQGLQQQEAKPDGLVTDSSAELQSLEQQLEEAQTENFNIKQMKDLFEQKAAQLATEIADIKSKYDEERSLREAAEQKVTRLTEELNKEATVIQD

Row | binding [1] | binding [2] | binding [3] | Binder
1 | binds | – | – | GTP-bound form of Vps21p (Vps21 Q66L) (protein, UniProt P36017 1-210) MNTSVTSIKLVLLGEAAVGKSSIVLRFVSNDFAENKEPTIGAAFLTQRVTINEHTVKFEIWDTAGLERFASLAPMYYRNAQAALVVYDVTKPQSFIKARHWVKELHEQASKDIIIALVGNKIDMLQEGGERKVAREEGEKLAEEKGLLFFETSAKTGENVNDVFLGIGEKIPLKTAEEQNSASNERESNNQRVDLNAANDGTSANSACSC
2 | no binding | – | – | GDP-bound form of Vps21p (Vps21 S21N) (protein, UniProt P36017 1-210) MNTSVTSIKLVLLGEAAVGKNSIVLRFVSNDFAENKEPTIGAAFLTQRVTINEHTVKFEIWDTAGQERFASLAPMYYRNAQAALVVYDVTKPQSFIKARHWVKELHEQASKDIIIALVGNKIDMLQEGGERKVAREEGEKLAEEKGLLFFETSAKTGENVNDVFLGIGEKIPLKTAEEQNSASNERESNNQRVDLNAANDGTSANSACSC
3 | – | binds weakly | binds | GFP-Vps21p (protein, UniProt P36017 1-210) MNTSVTSIKLVLLGEAAVGKSSIVLRFVSNDFAENKEPTIGAAFLTQRVTINEHTVKFEIWDTAGQERFASLAPMYYRNAQAALVVYDVTKPQSFIKARHWVKELHEQASKDIIIALVGNKIDMLQEGGERKVAREEGEKLAEEKGLLFFETSAKTGENVNDVFLGIGEKIPLKTAEEQNSASNERESNNQRVDLNAANDGTSANSACSC

— article PMC6858330
